Results: PMC7660256

By UniProt entry, the sequences of proteins in these tests, tags left out. Where a name states a change or a piece, a line headed by the entry shows the natural chain unless it says otherwise.
UniProt P0ACL9: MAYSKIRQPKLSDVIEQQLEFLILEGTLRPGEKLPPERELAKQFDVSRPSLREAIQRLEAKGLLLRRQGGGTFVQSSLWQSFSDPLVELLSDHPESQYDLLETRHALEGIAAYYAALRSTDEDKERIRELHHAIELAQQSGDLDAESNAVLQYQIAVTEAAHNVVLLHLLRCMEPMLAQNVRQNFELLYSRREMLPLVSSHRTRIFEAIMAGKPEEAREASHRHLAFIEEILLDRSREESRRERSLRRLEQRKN

Target: PdhR (Escherichia coli K-12 W3110) (UniProt P0ACL9)
Assay: EMSA
Details: Gel shift buffer (composition not given), 37 °C, 30 min, 0.2 pmol probe, 0-10 pmol PdhR, GelRed stain, recombinant protein, protein details: His-tag (pET21a, Ni-NTA), probe letters rebuilt from the primers and the genome
[1] = smear, complex dissociates in gel

Row | Sequence | binding result (clear complex band) | binding result | binding result [1]
1 | AGAGGAATGTGTGCTTGTGTCTCAGCCCAACGTGAGTGCCTGTTTTTGAGTCGTTGAGTTCTACAGTCCAAAGTGCTGAAACCATTCAAGAGTCAATTGGCGCGCATTATACGCTGAAATTAATCCAAAAGGAAAACAAAAACAGCGTTTCAAAAAATATACAACTTGTTAGACAATAAATTGTTATCAAAGATTTAACGTTCCAGGGAAAAGGTTACGCAAAAACTTCACTGTTTGCGCAACGTCTGGTGCCGAAGTTGTCAGTGTGAGGATAAGTGAAAGTTCATCCGGTGTATAAATATATCATCGCTCAATTGCTACAGTTAAAATAATTTATCGCGTTATTTGTCTGATTTTGTTTGATTTTTGTTTAATTGGTTAGATTGATATATGCTGATAGTTGGCATGATAAATAGGTATAAAGAATGGGA (double strand) [fumD/pykF probe] | binds | – | –
2 | AGTTTCTCCATCACTGGTCGGTGATCAGAACCTTAAAACAGCGTAGACGCTTTTTGGGCTTTGTGAGAAATCTCGCAGAAAAAACCGCGAGTCTATAATCCGACGTAGAACAGAGGGAAAGGAGGAACCCTTGCCGAAATGACTATCCATAGTGAGTCGGGAACGATCCTGTCCCCGTAAAAACATAATATTTATCGTAGCTTTAACAACTCGAAATTAGTATAGGCCGCTAATTTCAATCATACAACAAAATTTTGTTAGCAGCCTAAGTATAAGTATATCGATATAGATCAGTGTGATTCGCTATGAGCGACTTCGGCATTGCCATGATTCTGGCAGCCAACTTCTTCACAACGTTGCATCATGTAACCCAGCGCGACCAGCACTACTGTTGATAACATCACGC (double strand) [ydhC ORF probe] | – | binds | –
3 | ATGTTGGCACCATTATGGACAACTCCGACTGCACCGCGTCTTACAGCCGCGTGTTTGCAAACCGCGCAGAAGCAGAGCAAACGCTGGCGGCGCTGACTGAAAAAGCCCGTAGCGTGGAATCTGAACCTTGCAAAATCACCCCGACTTTCACTGAAGAGTCTGACGGTGTGCGCCTGGATATCGATTTCACTTTTGCCTGCGAAGCTGAAATGCTGATTTTCCAGCTGGGTCTGCGTTAATTCCTCTCGGGTACGTACGCCCCTGTCAGTTGCTGGCAGGGGCGTTTTCTTTTCTCTTCTTCTTTTCTCTCTGTGTCATAGCTCCCACTTTCCCTTTTCTCCACTTGGCTAAATGTAAAAAAATGGTTAAGACTATGATCAGGTCAGACCACTTTATTTATTTTTTTACAGGGGAGTGTT (double strand) [fadI probe] | – | – | binds
4 | CGAACAATCCTTTTGTGATAAATGAACGGTTTGAGAAACACATTTCTGCGCATTTATCTTTGCATATTTAACCGGATGAAAAAAACGGTGAATCGTTCAAGCAAATATATTTTTTTACTTTTTAAGACTGATCCCAGCGTTGCGCAAATCTGCTCTCTTCGACAATTTCCACATAAACCATCGGTATAAACGAAACCATAAAAATGAAATGCTGTTTTCATAAAAAATAAAATTGAAGGTTCATTTTATAAACCAGACATAACGTTCTACGCTTCTGTGCGTTTTTAATTTATGCTTTCATAGAATTATGTCTGCATCACGGGAAGAACAAAATGGATAATGCTGTTGATCGCCACGTTTTTTATATTTCTGATGGTACGGCAATAACTGCGGAGGTATTAGGACACGCAGTAATGTCACAATTT (double strand) [ppsA/ppsR probe] | – | – | binds
5 | GAGTTCCTGTCTTAAGCCACTTGCCGAAGTCAATTGGTCTTACCAATTTCATGTCTGTGACGCTAAAGTAACAAAGTATTCACCTTATGTCCATACAGGTTTTGATTGAAATCATGAAACTGTGCACATTTTAACAACTTGACATATATAACGTTTCAAAGTTGTAACTATGCACAAATGTAGACTTTACGTAGGAAAGGAGTTTTTTAACGATTATTAAACTATAAAAATCCGAATTGAACCGATTCACTTACCAATTTTGTGATTTTTAATTCAATTAAAACGAATTTAAATTCATTCTACATATTGAGAGGGGTTGAGGCTGAGCTTTACAAACGGTTTCTTTTTAAGCAACTCATCTTCAACCATGCATAAAGCGGGTGCATTCGCTGCCGCATACCATTATTCTTGATCTGACGGAAGTCTTTTTGTAACAATTCAAACTTCTTTGATGTAAACAAATTAATACAACAAACGG (double strand) [aroP/pdhR probe] | – | binds | –
6 | TGATAAACAGCCCTGCGTTATATGAGTTATCGGCATGATTATCCGTTTCTGCAGGGTTTTTAATCGGACGATTAGTGGGTGAAATGAGGGGTTATTTGGGGGTTACAGGTAAATTCCAGGCAGAAAAAAACCCCGCCGGTGGCGGGGAAGCACGTTGCTGACAAATTGCGCTTTATGTTGCCGGATGCGGCGTAAACGCCTTATCCGGCCTACAAAAATGTGCAAATTCAATAAATTGCAATTCAACTTGTAGGCCTGATAAGCGCAGCGCATCAGGCAATTTGGCGTTGCCGTCAGTCTCAGTTAATCAGGTTACAACGATTAACCCTGCAGCAGAGACAGAACCTGCTGCGGTACCTGGTTAGCTTTTGCCAACACGGAGTTACCGGCCTGCTGGATGATCTGCGCTTTCGACATATTGGACACTTCGGTCGCATAGTCGGCGTCCTGAATACGGGACTGCGCTTCAGACAGGTTGGTAGTGGTGTTGTTCAGGTTGGTAACCGCGGAATCCAGACGGTTTTGCACCGCACCGAGGGAAGAACGGAATTTGTCTACAGATGCGATAGCATCGTCCAGCGCTTTCAGCGGATCCGTGGTTTTACCATTTGCAACAGCAGTCAGAGCCTCACCACCAGCAGTCAAACCTGTTTGCAGATTACCGCCATTTAAATCGGCAGAATCGTATGTTTTACCATCAATATCGACCACTTCTGTTTTGCCATCATCTCCGCCCAGTTTGACCGCGGTTGGAGAACTGGCGGCACCGGAAGAGTCAGTATAGGTAATAG (double strand) [fliA probe] | binds | – | –

For at least one entry, the source does not settle the construct or the ends of the probe.
